For this test, the target named is T1, GST-PER2 (human) (UniProt O15055).
T1 sequence: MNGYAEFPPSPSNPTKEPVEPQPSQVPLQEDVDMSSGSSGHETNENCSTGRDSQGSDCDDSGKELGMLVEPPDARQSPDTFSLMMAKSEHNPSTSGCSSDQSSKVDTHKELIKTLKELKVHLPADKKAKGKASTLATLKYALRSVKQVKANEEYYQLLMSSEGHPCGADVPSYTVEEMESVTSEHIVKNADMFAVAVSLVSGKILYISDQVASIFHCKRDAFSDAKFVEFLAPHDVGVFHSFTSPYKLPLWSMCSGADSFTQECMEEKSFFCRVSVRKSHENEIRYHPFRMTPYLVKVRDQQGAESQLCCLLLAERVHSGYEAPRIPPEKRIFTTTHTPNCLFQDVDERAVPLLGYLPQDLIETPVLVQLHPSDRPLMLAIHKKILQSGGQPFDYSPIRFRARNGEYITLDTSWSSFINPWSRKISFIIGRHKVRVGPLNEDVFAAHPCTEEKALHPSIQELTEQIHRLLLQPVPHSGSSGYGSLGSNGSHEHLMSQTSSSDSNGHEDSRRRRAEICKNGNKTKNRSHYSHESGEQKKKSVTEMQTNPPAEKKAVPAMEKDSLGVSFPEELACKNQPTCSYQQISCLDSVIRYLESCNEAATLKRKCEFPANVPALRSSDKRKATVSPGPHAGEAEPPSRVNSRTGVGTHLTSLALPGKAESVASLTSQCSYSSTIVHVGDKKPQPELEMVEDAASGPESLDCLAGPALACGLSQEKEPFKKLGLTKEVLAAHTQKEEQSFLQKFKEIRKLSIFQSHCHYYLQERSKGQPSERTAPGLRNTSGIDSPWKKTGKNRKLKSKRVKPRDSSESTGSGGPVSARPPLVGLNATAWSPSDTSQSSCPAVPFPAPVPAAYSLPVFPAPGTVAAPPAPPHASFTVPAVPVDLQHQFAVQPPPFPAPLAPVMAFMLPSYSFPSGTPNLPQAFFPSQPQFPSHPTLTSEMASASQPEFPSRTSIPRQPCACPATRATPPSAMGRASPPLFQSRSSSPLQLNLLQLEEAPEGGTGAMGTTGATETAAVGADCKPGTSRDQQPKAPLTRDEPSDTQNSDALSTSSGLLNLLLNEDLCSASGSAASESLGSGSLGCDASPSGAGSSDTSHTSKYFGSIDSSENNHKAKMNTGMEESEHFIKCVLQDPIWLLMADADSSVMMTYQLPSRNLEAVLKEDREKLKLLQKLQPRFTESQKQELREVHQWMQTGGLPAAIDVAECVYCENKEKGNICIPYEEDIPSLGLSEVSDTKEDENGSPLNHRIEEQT
As to the kind of experiment: pull-down; GST-PER2 or GST-HSP70 captured on glutathione agarose from bacterial lysates (1 h, 4 °C); about 100 µg fusion protein incubated with the target proteins for 4 h in vitro; eluted with glutathione, western blot (Pierce GST Protein Interaction Pull-down Kit). (In general: In western blotting, separated proteins are transferred to a membrane and probed.)

One substance from article PMC11926231 can be followed below.

No constants are given. Whether binding was seen depends on the method and setting. Binding seen in cells or lysates may run through a third protein. Where a sequence is shown, tags or fusion partners need not be part of it.

For the substance “AKT, target protein of the GST pull-down”, the binding result is reported as “no binding”.
